Values quoted from earlier work as cited in patent publication US9370540B2, “K2 composition and the preparation method and use of the same” (SINPHAR PHARMACEUTICAL CO., LTD., priority 2014, dated 2016).
For at least one compound, name, drawing or mass did not settle the structure.

Tested on: A549 cells
Conditions: from Molecular Carcinogenesis papers

## C=C(CC[C@@H](C(=O)O)[C@H]1[C@H](O)C[C@@]2(C)C3=C(CC[C@]12C)[C@@]1(C)CC[C@H](OC(C)=O)C(C)(C)[C@@H]1CC3)C(C)C [pachymic acid]
  IC50, inhibiting the growth of lung cancer cells: about 40 μg/ml
